## Percent effect of library compounds

Data taken from ChEMBL document CHEMBL3988442, “University of Dundee, Small-Polar-MMV Screening Library” (2021).

Values are the deposited “Percent Effect”, in %. The record does not define 0% and 100%; most values in the screen are far below 50% and negative numbers occur (in some assays of this library far below -100). This is an unselected part of the compounds tested. Two or more numbers in one place are separate tests of the same structure; such repeats can differ widely. A dash means the value is not listed here; it may have been measured.

Toxoplasma: 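Assay of Toxoplasma gondii numbers, read through their beta-galactosidase reporter with a colour substrate. Concentration: 10 µM. Higher reads as fewer parasites (inferred from which compounds were picked for retests). Of about 67,000 compounds tested this way, about 260 (0.38%) reached 50% or more in at least one test.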
T. brucei: 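Whole-parasite assay of Trypanosoma brucei over 72 hours; the read-out is not stated. Concentration: 30 µM. Higher reads as stronger inhibition (inferred: compounds with an IC50 in retests scored well above the rest). Values scatter widely below zero; nearly all retest evidence comes from the higher of the two concentrations used. Of about 64,000 compounds tested this way, about 940 (1.5%) reached 50% or more in at least one test.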
Leishmania in macrophages: 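Cell assay of Leishmania donovani living inside macrophages; the read-out is not stated. Concentration: 30 µM. Higher reads as stronger inhibition (inferred: compounds with an IC50 in retests scored well above the rest). Size under these conditions: about 69,000 compounds, about 1,000 of them at 50% or above in at least one test.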

Compound,Toxoplasma,T. brucei,Leishmania in macrophages
COCCN(Cc1ccc(C)cc1)Cc1c[nH]cn1,-2.205,10.42,2.595
CC(C)(C)c1nc(CN2CCCC2CCc2ccccc2)no1 (centres unmarked),0,-40.75,-88.92
CCOC(=O)Cn1c(=O)c(OCC)nc2cnccc21,4.923,-18.24,9.144
O=C(N[C@@H]1CC[C@@H](N2CCOCC2)[C@@H]1O)c1cnn2cccnc12,13.26,-48.69,1.179 & 17.5
[H][C@@]12CCN(C[C@@H]1CC)[C@@H](CNC(=O)Nc1ccc(Br)cc1)C2,-3.784,-7.885,-48.6
[H][C@@]12CN(C(=O)CO)C[C@]1([H])C(=O)N(Cc1cccc(F)c1)C2,-6.412,-7.119,16.98
O=C(Nc1ccc(F)c(Br)c1)N1CCCC1,12.55,97.43,4.634
COc1cc2c(cc1-c1nc3c(cnn3C(C)C3CC3)[nH]1)OCO2 (centres unmarked),0.6775,4.72,0.4019
Cc1cnn(CC2CCCN2CC(=O)N(C)Cc2ccc(C)o2)c1 (centres unmarked),0.4616,-5.023,18.32
[H][C@]12CCN(C(=O)C3CCCO3)CC[C@@]1([H])S(=O)(=O)N(CC)C2 (some centres unmarked),-4.369,-54.48,16.42
CC(C)c1nnc2sc(CC3CN(Cc4ccccc4)CCO3)nn12 (centres unmarked),-11.12,-16.15,-18.71
COc1c(CNC2CCc3c(F)cccc32)c(C)nn1C.Cl (centres unmarked),34.82,-,34.02
Cc1ncsc1C(=O)OCC1CCN(c2ccccc2)C1 (centres unmarked),17.09,-24.54,-27.34
CCc1nc2n(n1)CC(NCc1nc(C)c(C)o1)CC2 (centres unmarked),8.395,-5.768,35.52
Cc1ccc(NC(=O)CNc2cccc3c2CCCC3)c(Br)c1,3.668,-62.74,48.72
CCc1nccn1C1CCCN(C(=O)Cc2ccc(OC)c(F)c2)C1 (centres unmarked),3.011,-7.368,14.88
CC(SCC(=O)NC(N)=O)c1ccc(Cl)cc1 (centres unmarked),-2.953,-10.84,28.82
CC(C)n1ccc(-c2cc(C(=O)N3CCCC3)c3ccccn23)n1,0.269,-,-6.823
Cc1cn([C@@H]2CC3(CCNCC3)OC[C@@]2(C)O)c(=O)[nH]c1=O,-1.839,8.994,-25.49
O=C(O)C(F)(F)F.O=C(O)C(F)(F)F.O=C(O)C(F)(F)F.[H][C@]12CCN(Cc3ccccn3)[C@@]1([H])CC[C@@H](COCc1ccncc1)O2,-3.827,-4.551,24.29
CN(C)c1ncccc1NC(=O)COCC1CC1,-6.536,-66.46,23.43
COCCN1CCCc2sc(C(=O)Nc3ccc(C)nc3)nc21.O=C(O)C(F)(F)F,5.32,-30.09,13.37
CCn1ncnc1C1CC(=O)NCc2nc(N3CCOCC3)sc21 (centres unmarked),-3.655,-27.52,40.3
CCN(CC)S(=O)(=O)c1ccc(C(F)(F)F)cc1C#N,-6.479,-9.672,36.19
CSCCC(NC(=O)c1ccc2ccccc2n1)C(=O)O (centres unmarked),-2.358,-30.11,8.048
Cc1nn(C)c(C)c1CN(C)C(=O)c1cccc(CCC(C)(C)O)c1,2.592,-2.924,45.36
CCOC(=O)CN1CCC(NC(=O)OC(C)(C)C)CC1,11.61,-44.6,3.897
O=C(CCCc1nc2ccccc2[nH]1)N1CCCC(n2cccn2)C1 (centres unmarked),-17.22,-5.061,27.71
[H][C@]12CCN[C@@]1([H])CN(C(=O)NCC(C)C)C2,-4.501,0.4536,12.51
COc1cccc(-n2nnc(C(=O)N3CCNC(=O)C3)c2C)c1,15.86,-8.519,2.583
COCCCNC(=O)CN(C)C(=O)c1cc(C)ccc1N(C)C(C)C,21.22,21.06,23.56
CC(CN1CCOCC1)OC(=O)c1cccc2cn[nH]c12 (centres unmarked),-1.299,-27.01,17.79
O=C(c1cscn1)N1CCC2(CCN(Cc3nccs3)CC2)CC1,-13.71,-22.66,-8.988
Cn1c(C2CC2)nc2c1CCN(CCc1ccccn1)C2,-2.567,-31.21,20.41
Cc1cc2ncn(C(=O)N3CCCCC3)c2cc1C,6.056,13.87,4.25
CCOc1ccc(C(F)(F)F)cc1NCc1nc(C)c(C)o1,-14.95,-17.44,-12.99
COc1ccc(CC(=O)N2CCC(c3nncn3C)CC2)cc1F,-4.71,-37,29.92
Cc1noc(C)c1CN1CC2(CCCCN2c2cncnc2)CC1=O (centres unmarked),-1.197,-35.36,12.44 & 22.99
CC(C)(C)n1cc(C(=O)N2CCN(Cc3ccsc3)CC2)cn1,-10.16,14.41,22.34
COc1ccc2c(c1)C(=O)NC1(CC2)CCN(Cc2ccccc2)C1 (centres unmarked),24.56,34.45,34.49
CC(=O)N1Cc2ccccc2OC2(CCN(C(=O)C3CCOC3)CC2)C1 (centres unmarked),-3.424,-,-2.985
O=C(Cc1cn2ccsc2n1)N1CCCC(n2cncn2)C1 (centres unmarked),2.03,-9.027,-2.445
COCCN1CCC(CNC(=O)C2(c3cc(C)cc(C)c3)CC2)CC1,2.059,2.121,27.59
CCC1(CC)CC(=O)N(CC(O)c2cc(F)ccc2F)C1=O (centres unmarked),15.74,-58.65,-15.13
C=C(Cl)CN(C)C1CCN(CCc2ccccn2)CC1,7.881,-9.54,30.29
Cc1cccc(N2CCC(NCc3cnc(C4CCC4)s3)CC2)n1,1.129,-27.64,20.74
O=C(c1ccc(Cn2cc(Br)cn2)cc1)N1CCOCC1,-7.227,13.27,21.31
CC(=O)N1CCCC(c2ccc(Cc3ccccc3)cn2)C1 (centres unmarked),11.68,98.95,-26.06
COc1ccccc1-c1cc(NC(=O)CCC2CCCO2)[nH]n1 (centres unmarked),11.36,-16.73,6.949
CC1CC2(CCN(C(=O)c3c[nH]cn3)CC2)c2ccccc21 (centres unmarked),-11.45,-18.78,-17.07
Cc1cnn(CC2CCCN2c2ncnc3c2CCC3)c1 (centres unmarked),-3.472,-7.325,7.414
Cc1nc(CN2C(=O)COC3(CCN(C(N)=O)CC3)C2C)cs1 (centres unmarked),-16.64,-32.78,6.652
Cc1c(CN2C[C@H](O)[C@@H](N3CCOCC3)C2)[nH]c2ccc(F)cc12,25.23,-47.61,-28.1
O=C1CCC(c2nc(C3CCN(C(=O)C4CC4)CC3)no2)N1 (centres unmarked),-5.73,-4.591,-19.61
Cc1cn2c(n1)CCC(NC(=O)CCOc1ccccc1F)C2 (centres unmarked),2.209,7.399,-2.602
COCCOc1ccc(CNc2cnc3ccccc3n2)cn1,16.08,-40.31,48.53

3 of the entries, repeated:

{"compound": "O=C(N[C@@H]1CC[C@@H](N2CCOCC2)[C@@H]1O)c1cnn2cccnc12", "Toxoplasma": 13.26, "T. brucei": -48.69, "Leishmania in macrophages": "1.179 & 17.5"}
{"compound": "CCOC(=O)CN1CCC(NC(=O)OC(C)(C)C)CC1", "Toxoplasma": 11.61, "T. brucei": -44.6, "Leishmania in macrophages": 3.897}
{"compound": "CCOc1ccc(C(F)(F)F)cc1NCc1nc(C)c(C)o1", "Toxoplasma": -14.95, "T. brucei": -17.44, "Leishmania in macrophages": -12.99}